Measurements from patent US20240216525 (published 2024).

Assays:
[1] = general procedure: Fmoc solid-phase peptide synthesis; 2-chlorotrityl; HATU/DIPEA; bromoacetic acid/diisopropylcarbodiimide (sub-monomer); settings: whole synthesis, on initial Fmoc-sarcosine loading
[2] = general procedure: Fmoc solid-phase peptide synthesis; Rink amide; HATU/DIPEA; bromoacetic acid/diisopropylcarbodiimide (sub-monomer); settings: whole synthesis, on initial Fmoc-sarcosine loading

Row | Substance | isolated yield [1] [%] | isolated yield [2] [%]
1 | NH2-Gly-(N3)- PSAR10- COOH | 14 | 
2 | NHFmoc-Gly- (Glu-NHS)- PSAR10-CONH2 |  | 56
3 | NH2-Gly-(N3)- PSAR10- CONH2 |  | 48
4 | NH2-Gly-(N3)- PSAR12- CONH2 |  | 37
